PubChem BioAssay AID1259405, NCATS, 2018
The deposit covers about 50,000 reagents; this is an unselected part. Of all reagents, about 4,000 (8%) were called active. 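Mouse siRNA library applied to hamster cells; one well for each siRNA.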 Unmarked entries are inactive. The numbers tell different reagents against one gene apart.

Purpose: 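Knock-downs that lift recombinant protein yield in hamster ovary cells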 (primary screen)
System: Chinese hamster CHO-K1 ovary cells with stable secreted eGFP expression
Knock-down reagent: single siRNA against mouse genes, 0.8 pmol siRNA per well (2 µl of 400 nM stock)
Timing: 3 days
Measurement: 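Percent of the per-plate non-targeting control median for intracellular GFP per well by laser scanning cytometry and for cell viability by ATP luminescence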
Direction: GFP, % of control: higher = more GFP per well, higher productivity; viability (ATP), % of control: higher = more viable cells (more ATP)
Call rule: 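a knock-down is called active if GFP reaches 120% or more of non-targeting control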

With knock-down of Naca (GeneID 17938) #1, the record shows GFP, % of control 128 (active); viability (ATP), % of control 93.3.
With knock-down of Naca (GeneID 17938) #2 the results were GFP, % of control 47.1; viability (ATP), % of control 33.5.
Tcf4 (GeneID 21413) #1 scored GFP, % of control 68.8; viability (ATP), % of control 66.5.
Depletion of Tcf4 (GeneID 21413) #2 gave: GFP, % of control 57.1; viability (ATP), % of control 75.8.
Tcf4 (GeneID 21413) #3 scored GFP, % of control 94.3; viability (ATP), % of control 99.4.
Vcan (GeneID 13003) #1 showed GFP, % of control 122 (active); viability (ATP), % of control 146.
After knock-down of Vcan (GeneID 13003) #2, the record shows GFP, % of control 53.2; viability (ATP), % of control 78.9.
Depletion of Guk1 (GeneID 14923) gave: GFP, % of control 58; viability (ATP), % of control 71.9.
With knock-down of Rasgrp2 (GeneID 19395) #1, the screen gave GFP, % of control 135 (active); viability (ATP), % of control 89.5.
With knock-down of Rasgrp2 (GeneID 19395) #2, the record shows GFP, % of control 100; viability (ATP), % of control 71.3.
Rasgrp2 (GeneID 19395) #3 scored GFP, % of control 110; viability (ATP), % of control 58.7.
After knock-down of Snap25 (GeneID 20614) #1, the record shows GFP, % of control 74.4; viability (ATP), % of control 43.2.
For Snap25 (GeneID 20614) #2 the deposit lists GFP, % of control 66; viability (ATP), % of control 49.7.
Against Fscn1 (GeneID 14086) #1, the values are GFP, % of control 73.7; viability (ATP), % of control 69.7.
With knock-down of Fscn1 (GeneID 14086) #2, the record shows GFP, % of control 82.1; viability (ATP), % of control 73.9.
Knock-down of Fscn1 (GeneID 14086) #3 resulted in: GFP, % of control 61; viability (ATP), % of control 83.1.
Against Gm16367 (GeneID 545762) #1, the values are GFP, % of control 100; viability (ATP), % of control 79.1.
With knock-down of Gm16367 (GeneID 545762) #2, the record shows GFP, % of control 91.1; viability (ATP), % of control 95.4.
Gm16367 (GeneID 545762) #3 scored GFP, % of control 58.9; viability (ATP), % of control 55.1.
Depletion of Dnttip1 (GeneID 76233) #1 came out at: GFP, % of control 61.6; viability (ATP), % of control 56.2.
Against Dnttip1 (GeneID 76233) #2 the deposit lists GFP, % of control 131 (active); viability (ATP), % of control 99.
For Capza1b (GeneID 66747) #1, the entry reads GFP, % of control 26.9; viability (ATP), % of control 47.9.
With knock-down of Capza1b (GeneID 66747) #2, the record shows GFP, % of control 60.4; viability (ATP), % of control 75.
Capza1b (GeneID 66747) #3 showed GFP, % of control 61.6; viability (ATP), % of control 67.5.
With knock-down of Ddx5 (GeneID 13207) #1 the results were GFP, % of control 87.6; viability (ATP), % of control 57.8.
After knock-down of Ddx5 (GeneID 13207) #2 the results were GFP, % of control 70.2; viability (ATP), % of control 63.9.
After knock-down of Ddx5 (GeneID 13207) #3, the record shows GFP, % of control 187 (active); viability (ATP), % of control 141.

Targets listed so far whose target name begins with N or n:
Naca (GeneID 17938) #1 | GFP, % of control = 128 (active); viability (ATP), % of control = 93.3
Naca (GeneID 17938) #2 | GFP, % of control = 47.1; viability (ATP), % of control = 33.5
